Measured values from article PMC7145517.
Results are given in words; binding and its absence hold for the method and conditions named. Binding seen in cells or lysates may run through a third protein. Some binding calls cover weakened binding; strength is not graded here.

Sequences of proteins named here, by UniProt entry; tags and fusion partners are left off.
UniProt Q9P0U4: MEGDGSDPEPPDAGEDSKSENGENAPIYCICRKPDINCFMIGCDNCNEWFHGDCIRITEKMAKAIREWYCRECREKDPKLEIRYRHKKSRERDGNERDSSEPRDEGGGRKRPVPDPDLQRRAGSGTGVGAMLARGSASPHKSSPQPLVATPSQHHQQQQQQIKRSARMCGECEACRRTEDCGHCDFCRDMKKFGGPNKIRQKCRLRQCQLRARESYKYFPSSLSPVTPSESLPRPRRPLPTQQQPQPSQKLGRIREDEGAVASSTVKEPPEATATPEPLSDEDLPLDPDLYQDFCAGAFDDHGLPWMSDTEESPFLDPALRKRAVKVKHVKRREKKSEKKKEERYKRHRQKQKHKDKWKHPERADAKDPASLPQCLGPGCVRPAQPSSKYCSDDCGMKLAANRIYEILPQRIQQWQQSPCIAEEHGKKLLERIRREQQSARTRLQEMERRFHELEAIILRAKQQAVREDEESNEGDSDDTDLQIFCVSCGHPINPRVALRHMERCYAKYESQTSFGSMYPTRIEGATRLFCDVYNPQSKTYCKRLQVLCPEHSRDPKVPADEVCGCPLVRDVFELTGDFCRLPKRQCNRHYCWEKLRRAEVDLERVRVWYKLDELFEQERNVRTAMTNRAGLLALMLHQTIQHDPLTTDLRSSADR
UniProt Q15291: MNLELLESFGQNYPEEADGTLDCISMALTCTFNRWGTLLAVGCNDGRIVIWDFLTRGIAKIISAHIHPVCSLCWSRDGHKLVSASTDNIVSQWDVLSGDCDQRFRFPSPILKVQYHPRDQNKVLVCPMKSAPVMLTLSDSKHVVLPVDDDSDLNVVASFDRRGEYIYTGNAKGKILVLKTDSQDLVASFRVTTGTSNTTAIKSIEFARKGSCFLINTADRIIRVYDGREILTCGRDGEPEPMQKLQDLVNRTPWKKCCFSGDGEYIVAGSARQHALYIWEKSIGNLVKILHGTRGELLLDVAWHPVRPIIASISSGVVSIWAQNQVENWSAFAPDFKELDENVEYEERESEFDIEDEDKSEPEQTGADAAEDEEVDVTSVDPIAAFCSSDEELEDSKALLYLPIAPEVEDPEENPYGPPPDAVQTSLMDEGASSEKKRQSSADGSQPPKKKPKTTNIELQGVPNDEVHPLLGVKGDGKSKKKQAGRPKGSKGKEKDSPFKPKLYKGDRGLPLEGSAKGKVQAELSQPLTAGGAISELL

Target: Flag-tagged wild-type human Cfp1 (human) (UniProt Q9P0U4)
Experiment: co-IP; Flag-tagged human Cfp1 in Cfp1 knockdown HEK293 cells; RIPA lysate (400 mM NaCl); Anti-FLAG M2 magnetic beads 16 h; washes with 300 mM NaCl, 0.1% NP-40; western blot

## RbBP5 of HEK293 cells (from UniProt Q15291 1-538)
  binding: binds
